No constants are given. Whether binding was seen depends on the method and setting.

Sequences of proteins named here, by UniProt entry; tags and fusion partners are left off. A change or cut given only in a name is not applied to a line headed by its entry. A line that says so, or that is headed by a name, gives the form on record, which may keep a tag or linker.
UniProt Q08174: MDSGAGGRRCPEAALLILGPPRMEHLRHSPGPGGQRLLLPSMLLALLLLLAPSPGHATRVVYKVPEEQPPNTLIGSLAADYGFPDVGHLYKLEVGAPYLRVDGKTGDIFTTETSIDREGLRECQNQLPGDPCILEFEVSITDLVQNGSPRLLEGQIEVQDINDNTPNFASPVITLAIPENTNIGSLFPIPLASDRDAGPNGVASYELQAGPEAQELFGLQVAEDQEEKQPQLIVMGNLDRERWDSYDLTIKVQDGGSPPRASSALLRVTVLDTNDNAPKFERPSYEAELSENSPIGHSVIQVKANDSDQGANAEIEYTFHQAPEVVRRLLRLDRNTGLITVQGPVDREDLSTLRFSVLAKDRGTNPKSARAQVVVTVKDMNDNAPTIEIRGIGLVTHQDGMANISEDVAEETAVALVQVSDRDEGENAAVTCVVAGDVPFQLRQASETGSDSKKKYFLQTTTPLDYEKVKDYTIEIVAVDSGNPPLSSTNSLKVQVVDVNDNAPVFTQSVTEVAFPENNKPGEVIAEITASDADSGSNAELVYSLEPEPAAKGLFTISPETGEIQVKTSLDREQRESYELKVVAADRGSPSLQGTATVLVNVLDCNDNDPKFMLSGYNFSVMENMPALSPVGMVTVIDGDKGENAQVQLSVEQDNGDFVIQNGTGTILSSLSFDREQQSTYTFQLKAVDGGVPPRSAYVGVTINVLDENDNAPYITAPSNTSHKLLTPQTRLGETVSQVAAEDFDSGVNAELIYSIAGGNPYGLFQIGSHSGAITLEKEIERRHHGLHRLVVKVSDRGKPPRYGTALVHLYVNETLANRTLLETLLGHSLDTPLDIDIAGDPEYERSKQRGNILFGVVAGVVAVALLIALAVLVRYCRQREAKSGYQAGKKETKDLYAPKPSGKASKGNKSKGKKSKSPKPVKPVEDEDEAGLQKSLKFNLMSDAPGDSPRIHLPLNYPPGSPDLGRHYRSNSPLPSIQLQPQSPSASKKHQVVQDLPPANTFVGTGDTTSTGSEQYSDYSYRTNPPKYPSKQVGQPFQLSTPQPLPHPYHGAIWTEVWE
PCDH1 EC1-4 C375S K398E (Q08174, form named): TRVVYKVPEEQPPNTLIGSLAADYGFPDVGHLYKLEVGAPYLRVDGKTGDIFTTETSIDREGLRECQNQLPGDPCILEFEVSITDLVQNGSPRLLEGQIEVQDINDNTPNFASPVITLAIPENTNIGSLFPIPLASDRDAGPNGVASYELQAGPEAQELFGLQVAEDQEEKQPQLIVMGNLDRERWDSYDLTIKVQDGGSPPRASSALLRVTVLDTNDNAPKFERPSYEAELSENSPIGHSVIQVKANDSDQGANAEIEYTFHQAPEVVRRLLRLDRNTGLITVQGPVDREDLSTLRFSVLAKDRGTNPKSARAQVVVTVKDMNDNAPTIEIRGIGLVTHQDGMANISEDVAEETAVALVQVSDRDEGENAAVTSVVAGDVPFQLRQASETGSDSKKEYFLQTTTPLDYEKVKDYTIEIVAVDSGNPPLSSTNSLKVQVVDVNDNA
PCDH1 EC1-7Fc K398E (Q08174, form named): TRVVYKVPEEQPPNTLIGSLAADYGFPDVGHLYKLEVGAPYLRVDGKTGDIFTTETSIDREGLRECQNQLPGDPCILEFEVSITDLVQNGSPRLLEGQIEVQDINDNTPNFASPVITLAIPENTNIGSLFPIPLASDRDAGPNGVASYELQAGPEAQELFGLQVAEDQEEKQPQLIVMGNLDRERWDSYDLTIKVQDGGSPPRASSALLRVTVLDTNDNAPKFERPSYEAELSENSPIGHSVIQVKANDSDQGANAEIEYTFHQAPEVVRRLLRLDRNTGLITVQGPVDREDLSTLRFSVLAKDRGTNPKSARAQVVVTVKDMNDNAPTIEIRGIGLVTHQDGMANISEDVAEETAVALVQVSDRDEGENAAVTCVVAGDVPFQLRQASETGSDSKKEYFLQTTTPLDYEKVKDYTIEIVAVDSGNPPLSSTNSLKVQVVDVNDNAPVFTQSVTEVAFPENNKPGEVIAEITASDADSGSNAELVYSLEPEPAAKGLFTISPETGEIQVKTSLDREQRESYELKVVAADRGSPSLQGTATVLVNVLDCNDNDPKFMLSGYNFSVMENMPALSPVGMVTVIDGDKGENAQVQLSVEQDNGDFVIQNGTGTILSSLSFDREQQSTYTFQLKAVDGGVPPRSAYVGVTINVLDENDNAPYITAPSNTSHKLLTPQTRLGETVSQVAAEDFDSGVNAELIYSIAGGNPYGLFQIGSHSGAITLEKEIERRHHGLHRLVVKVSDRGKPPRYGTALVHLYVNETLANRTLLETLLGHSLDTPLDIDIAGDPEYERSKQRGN

Assay [1] has as its target PCDH1 EC1-4 C375S K398E (human) (UniProt Q08174). In words: AUC.
The next assay deals with PCDH1 EC1-7Fc (human) (UniProt Q08174). In words: bead aggregation assay.
The target in a further assay is PCDH1 EC1-4Fc (human) (UniProt Q08174). In words: bead aggregation assay.
Assay [2] has as its target PCDH1 EC1-7Fc K398E (human) (UniProt Q08174). In words: bead aggregation assay.

With “PCDH1 EC1-4 C375S K398E (from UniProt Q08174 58-503) (domain or fragment)”, the binding entry in assay [1] is reported as “no binding”.
As for “PCDH1 EC1-7Fc (from UniProt Q08174 58-852) (Fc fusion)”, in the assay with PCDH1 EC1-7Fc (human), the binding entry was “no binding (condition: with 2 mM EDTA)”.
In the case of “PCDH1 EC1-4Fc (from UniProt Q08174 58-503) (Fc fusion)”, the binding entry with PCDH1 EC1-4Fc (human) was “no binding (condition: with 2 mM EDTA)”.
For the substance “PCDH1 EC1-7Fc K398E (from UniProt Q08174 58-852) (Fc fusion)”, the binding entry in assay [2] was “no binding”.

(Values after article doi:10.1101/498196 (bioRxiv, 2018).)
